# PubChem BioAssay AID2685 (National Center for Advancing Translational Sciences (NCATS), 2010)
# Among all 320,000 compounds or so, about 2,100 (0.66%) were called active. Inconclusive means that the source gave no clear call. Such entries were picked first, then a sample of the others. Calls come from the whole dose curve; as a rule, active = well fitted inhibition curve with a large enough effect in the signal ratio, with a control signal flat (not every such curve was filed as active); inconclusive = small, poorly fitted or top-dose-only effect, or effect the other way, or a change in a side signal; inactive = flat fitted curve, though single readings scatter; the % refers to the signal ratio. Where the call is inconclusive, the potency comes from a doubtful curve fit.
# Test: qHTS Assay for Lipid Storage Modulators in Drosophila S3 Cells
# Conditions: BODIPY lipid droplet fluorescence, 18-24 h, cells fed with added oleic acid; lipid storage change, negative = inhibition: at 46.1 µM (top of the series) unless noted
# In short: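 Laser-scanning cytometry quantifies lipid droplet accumulation (500–530 nm total intensity; droplet/cell object ratio) in oleic acid-fed (400 uM added) Drosophila S3 cells treated with a concentration series. 20 uM Triacsin C defined 100% inhibition.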
# % is set by controls: 0 for no effect and ±100 for the full control effect; potency is the fitted concentration of half-maximal effect.
Compound,"lipid storage change, negative = inhibition",Potency
C=CCn1c(SCc2ccc(C(=O)NCCO)cc2)nc2ccccc2c1=O,inconclusive: -22.1%,–
COc1ccc(/C=C/C(=O)c2ccc(O)cc2)cc1,inactive: 0.146%,–
CCOC(=O)c1ccc(NC(=O)CCNS(=O)(=O)c2cc(Br)cnc2N)cc1,inconclusive: -13.9%,–
COc1ccc(Cl)cc1S(=O)(=O)N(C)CC(=O)N1CCOCC1,inconclusive: -45.1%,–
O=C(COC(=O)CCCSc1nc2ccccc2[nH]1)Nc1cccc(F)c1,inconclusive: 8.59%,–
O=C1c2ccccc2NC(c2ccc3c(c2)OCO3)N1O (stereo unspecified),inconclusive: 20.8%,–
N#C/C(=C\c1ccccc1)C(=O)N1CCN(c2ccccc2F)CC1,inconclusive: -26%,–
O=C(N/C(=C\c1ccco1)C(=O)N1CCCC1)c1cccs1,inconclusive: 22.7%,–
Cc1ccc(S(=O)(=O)N2CCN(C(=O)CCC(=O)NC3CCCc4ccccc43)CC2)cc1 (stereo unspecified),inconclusive: 17.2%,–
Cc1cc(N2CCCC2)ccc1NC(=O)COc1cccc(C(F)(F)F)c1,–,"inconclusive: 29.1 µM [falling, single point]"
NS(=O)(=O)c1cccc(NC(=O)CCN2C(=O)C3CCCCC3C2=O)c1 (stereo unspecified),inconclusive: -3.54%,–
CCOc1ccc(N/C=C/C(=O)c2ccc(OC)cc2)c([N+](=O)[O-])c1,inconclusive: -3.67%,–
Cc1onc(-c2ccccc2Cl)c1C(=O)Nc1ccccc1,inactive: 9.8%,–
CCc1ccc(-c2csc(NC(=O)c3cccnc3)n2)cc1,inconclusive: 0.388%,–
Cc1[nH]c(C)c(S(=O)(=O)NCCc2ccccc2)c1C(=O)N1CCCCC1,–,active: 11.6 µM
Cc1nc2ccccc2c(=O)n1/N=C/c1ccccc1Cl,–,"inconclusive: 29.1 µM [falling, single point]"
COc1ccc(C2C(C#N)=C(SCC(=O)Nc3ccc(C)cc3)NC3=C2C(=O)CC(C)(C)C3)cc1 (stereo unspecified),–,"inconclusive: 0.731 µM [activator, full curve, poor fit]"
COc1ccc(C2C(C(=O)c3ccco3)=C(O)C(=O)N2c2nnc(C)s2)cc1OC (stereo unspecified),–,"inconclusive: 6.51 µM [falling, partial curve, poor fit]"
CC(=O)Nc1cc(Br)ccc1O,inconclusive: 34.5%,–
CCOC(=O)N1CCC(NC(=O)C2CCCN(S(=O)(=O)c3cccc4nsnc34)C2)CC1 (stereo unspecified),–,"inconclusive: 2.91 µM [activator, full curve]"
CCOc1ccc(CC(=O)Nc2ccc(S(=O)(=O)N3CCCC3)cc2)cc1,inconclusive: -100%,–
COC(=O)c1ccc(C(=O)N=c2sccn2C)cc1,inconclusive: 36.8%,–
COc1ccc(S(=O)(=O)N(CC(=O)N2CCN(C)CC2)c2ccc(C)cc2)cc1Br,–,"inconclusive: 6.51 µM [activator, partial curve, poor fit]"
COc1ccc(S(=O)(=O)N2CCOCC2)cc1NC(=O)CSc1ccccc1,inconclusive: -19.2%,–
CCCn1nnnc1NC(=O)CSc1ccc(Cl)cc1,inconclusive: -2.37%,–

Compound,"lipid storage change, negative = inhibition",Potency
CCOc1ccc(NC(=O)/C(C=Nc2ccccc2)=C(\C)O)cc1,inconclusive: 16.9%,–
CCc1noc(C)c1C(=O)NCCN1C(=O)S/C(=C\c2ccc(OC)cc2)C1=O,–,"inconclusive: 23.1 µM [rising, partial curve]"
Clc1ccccc1-c1ccc2ncnc(NCc3ccc4c(c3)OCO4)c2c1,inconclusive: 27.5%,"inconclusive: 32.6 µM [falling, single point]"
COc1cc(CNCCc2ccccc2F)ccc1OCc1ccc(Cl)nc1,inconclusive: 232%,–
O=C1CSC(=Nc2cccc([N+](=O)[O-])c2)N1,–,"inconclusive: 6.51 µM [falling, single point]"
CCOC(=O)Cn1nnnc1CN(Cc1ccc(OC)cc1)Cc1cc2cc(CC)ccc2[nH]c1=O,–,"inconclusive: 0.146 µM [activator, full curve, poor fit]"
O=C(N/N=C/c1ccc(O)cc1)c1ccc(COc2cc(Cl)ccc2Cl)o1,inconclusive: -27.1%,–
C=CCn1c(SC)nnc1C1COc2ccccc2O1 (stereo unspecified),inconclusive: 46.7%,–
Cc1c(NC(=S)NC(=O)c2ccccc2Br)c(=O)n(-c2ccccc2)n1C,inconclusive: 286%,–
Nc1cc(S(=O)(=O)C(F)(F)F)ccc1C(=O)O,inconclusive: -6.2%,–
O=C(N/N=C/c1ccc(-c2cccc(C(F)(F)F)c2)o1)c1ccccc1O,inconclusive: -25.2%,–
N=c1n(CCN2CCCCC2)c2ccccc2n1CC(O)c1cccc(Br)c1 (stereo unspecified),inconclusive: 9.09%,–
Cc1c(Cl)cccc1NC(=S)N1CCc2ccccc2C1,inconclusive: -5.04%,–
COc1ccc(/C=N/Nc2nnc(Cc3ccc(OC)c(OC)c3)c(=O)[nH]2)cc1,inconclusive: -6.18%,–
CC1(C)CSC(=NCCc2ccccc2)N1C(=O)c1ccc(C#N)cc1,–,active: 1.3 µM
c1ccc(C2CN3CCSC3=N2)cc1 (stereo unspecified),inconclusive: -58%,–
CCOC(=O)C1=C(C)NC(=S)NC1c1cccs1 (stereo unspecified),–,"inconclusive: 6.51 µM [falling, single point]"
Cc1ccc(S(=O)(=O)NN/C(=N/S(=O)(=O)c2ccccc2)c2ccccc2)cc1,–,"inconclusive: 3.66 µM [falling, partial curve]"
O=C(CSC1=Nc2ccccc2C2CC=NN12)Nc1ccc2c(c1)OCO2 (stereo unspecified),inconclusive: 29%,–
CC(C)(Oc1ccc(Cl)cc1)C(=O)NCC(c1ccco1)N1CCCCC1 (stereo unspecified),inconclusive: 57.4% [at 0.0737 µM],–
O=C(CCCCn1c(=O)[nH]c2ccsc2c1=O)NCCc1ccccc1,inconclusive: -10%,–
O=C(O)CCC(=O)N1CCC(C(=O)c2cccc(Cl)c2)CC1,inconclusive: -6.4%,–
COc1c(C)cc(S(=O)(=O)NCc2ccccn2)c(C)c1C,–,"inconclusive: 29.1 µM [activator, single point]"
CCCC(=O)N(CCN(Cc1ccccc1)C(=O)CCC)Cc1ccccc1,inconclusive: -11.7%,–
C=C(C)c1cccc(C(C)(C)NC(=O)NCc2ccncc2)c1,inconclusive: -27.4%,–

# Part of the list above in order of molecular weight, smallest number first.
Compound,"lipid storage change, negative = inhibition",Potency
COc1c(C)cc(S(=O)(=O)NCc2ccccn2)c(C)c1C,–,"inconclusive: 29.1 µM [activator, single point]"
O=C(O)CCC(=O)N1CCC(C(=O)c2cccc(Cl)c2)CC1,inconclusive: -6.4%,–
NS(=O)(=O)c1cccc(NC(=O)CCN2C(=O)C3CCCCC3C2=O)c1 (stereo unspecified),inconclusive: -3.54%,–
C=CCn1c(SCc2ccc(C(=O)NCCO)cc2)nc2ccccc2c1=O,inconclusive: -22.1%,–
